Here are results for one molecule from PMC6194124.

The chains behind the UniProt entries cited, without tags or fusion partners.
UniProt Q925U4: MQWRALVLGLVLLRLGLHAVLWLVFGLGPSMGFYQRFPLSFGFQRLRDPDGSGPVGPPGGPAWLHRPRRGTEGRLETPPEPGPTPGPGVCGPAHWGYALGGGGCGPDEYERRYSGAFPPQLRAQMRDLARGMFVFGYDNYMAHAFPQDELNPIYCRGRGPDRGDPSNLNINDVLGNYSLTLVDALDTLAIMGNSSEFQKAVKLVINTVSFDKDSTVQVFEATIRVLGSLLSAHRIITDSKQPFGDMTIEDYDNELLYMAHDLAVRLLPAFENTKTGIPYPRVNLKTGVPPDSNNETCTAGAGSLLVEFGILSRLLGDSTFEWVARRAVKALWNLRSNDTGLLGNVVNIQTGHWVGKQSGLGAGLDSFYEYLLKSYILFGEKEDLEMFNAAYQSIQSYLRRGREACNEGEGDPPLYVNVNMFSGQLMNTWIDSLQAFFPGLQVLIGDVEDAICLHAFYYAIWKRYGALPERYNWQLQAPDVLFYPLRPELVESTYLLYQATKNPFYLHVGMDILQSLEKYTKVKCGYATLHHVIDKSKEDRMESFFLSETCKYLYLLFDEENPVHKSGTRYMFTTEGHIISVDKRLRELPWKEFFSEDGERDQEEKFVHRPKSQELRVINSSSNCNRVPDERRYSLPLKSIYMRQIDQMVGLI

Assay [1] concerns the target EDEM1-HA (UniProt Q925U4). As to the kind of experiment: co-IP; HEK 293 cells expressing EDEM1-HA or EDEM2-HA with FLAG-TXNDC11 or FLAG-PDI; lysed in mild conditions (1% NP-40, 50 mM Tris/HCl pH 8, 150 mM NaCl); immunoprecipitated with anti-EDEM1 or anti-EDEM2, immunoblotted with anti-FLAG.
The target in assay [2] is T1, EDEM2-HA (UniProt Q9BV94).
T1 sequence: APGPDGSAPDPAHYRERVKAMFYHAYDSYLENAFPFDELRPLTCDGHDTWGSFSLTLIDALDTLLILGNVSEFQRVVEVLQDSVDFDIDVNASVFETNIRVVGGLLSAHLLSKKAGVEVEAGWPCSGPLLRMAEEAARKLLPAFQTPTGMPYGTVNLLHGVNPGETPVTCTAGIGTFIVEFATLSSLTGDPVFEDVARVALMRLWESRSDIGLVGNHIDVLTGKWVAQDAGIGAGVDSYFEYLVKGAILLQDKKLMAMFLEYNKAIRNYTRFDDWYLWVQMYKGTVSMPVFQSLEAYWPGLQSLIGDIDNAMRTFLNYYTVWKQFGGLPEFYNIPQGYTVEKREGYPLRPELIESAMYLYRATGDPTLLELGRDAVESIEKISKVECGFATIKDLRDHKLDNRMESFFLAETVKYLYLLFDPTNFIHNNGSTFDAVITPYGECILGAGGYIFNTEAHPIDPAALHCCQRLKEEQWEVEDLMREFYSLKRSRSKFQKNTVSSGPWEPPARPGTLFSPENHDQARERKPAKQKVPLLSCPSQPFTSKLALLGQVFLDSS
The description is as above.

Results are given in words; binding and its absence hold for the method and conditions named. In cells and extracts the contact can be indirect. Some entries that bind do so weakly or less than the wild type. Tags and fused reporters may be left off the sequences shown.

B1: FLAG-TXNDC11 (enzyme, UniProt Q6PKC3 1-985)
chain: MSECGGRGGGSSSSEDAEDEGGGGGGPAGSDCLSSSPTLATASSAGRLRRGLRGAFLMARQRPELLCGAVALGCALLLALKFTCSRAKDVIIPAKPPVSFFSLRSPVLDLFQGQLDYAEYVRRDSEVVLLFFYAPWCGQSIAARAEIEQAASRLSDQVLFVAINCWWNQGKCRKQKHFFYFPVIYLYHRSFGPIEYKGPMSAVYIEKFVRRVMKPLLYIPSQSELLDFLSNYEPGVLGYFEFSGSPQPPGYLTFFTSALHSLKKALESTSSPRALVSFTGEWHLETKIYVLDYLGTVRFGVITNKHLAKLVSLVHSGSVYLHRHFNTSLVFPREVLNYTAENICKWALENQETLFRWLRPHGGKSLLLNNELKKGPALFLFIPFNPLAESHPLIDEITEVALEYNNCHGDQVVERLLQHLRRVDAPVLESLALEVPAQLPDPPTITASPCCNTVVLPQWHSFSRTHNVCELCVNQTSGGMKPSSVSVPQCSFFEMAAALDSFYLKEQTFYHVASDSIECSNFLTSYSPFSYYTACCRTISRGVSGFIDSEQGVFEAPTVAFSSLEKKCEVDAPSSVPHIEENRYLFPEVDMTSTNFTGLSCRTNKTLNIYLLDSNLFWLYAERLGAPSSTQVKEFAAIVDVKEESHYILDPKQALMKLTLESFIQNFSVLYSPLKRHLIGSGSAQFPSQHLITEVTTDTFWEVVLQKQDVLLLYYAPWCGFCPSLNHIFIQLARNLPMDTFTVARIDVSQNDLPWEFMVDRLPTVLFFPCNRKDLSVKYPEDVPITLPNLLRFILHHSDPASSPQNVANSPTKECLQSEAVLQRGHISHLEREIQKLRAEISSLQRAQVQVESQLSSARRDEHRLRQQQRALEEQHSLLHAHSEQLQALYEQKTRELQELARKLQELADASENLLTENTWLKILVATMERKLEGRDGAESLAAQREVHPKQPEPSATPQLPGSSPPPANVSATLVSERNKENRTD
For the molecule B1, the binding entry in assay [1] and in assay [2] was “binds” each time.
